According to patent US20070054848A1, “Composition and method for nerve regeneration” (priority 2003, published 2007):
No constants are given. Whether binding was seen depends on the method and setting. For part of these data: In cells and extracts the contact can be indirect. Some binding calls cover weakened binding; strength is not graded here. For part of these data: Tags and fused reporters may be left off the sequences shown.

By UniProt entry, the sequences of proteins in these tests, tags left out. Where a name states a change or a piece, a line headed by the entry shows the natural chain unless it says otherwise.
UniProt O75116: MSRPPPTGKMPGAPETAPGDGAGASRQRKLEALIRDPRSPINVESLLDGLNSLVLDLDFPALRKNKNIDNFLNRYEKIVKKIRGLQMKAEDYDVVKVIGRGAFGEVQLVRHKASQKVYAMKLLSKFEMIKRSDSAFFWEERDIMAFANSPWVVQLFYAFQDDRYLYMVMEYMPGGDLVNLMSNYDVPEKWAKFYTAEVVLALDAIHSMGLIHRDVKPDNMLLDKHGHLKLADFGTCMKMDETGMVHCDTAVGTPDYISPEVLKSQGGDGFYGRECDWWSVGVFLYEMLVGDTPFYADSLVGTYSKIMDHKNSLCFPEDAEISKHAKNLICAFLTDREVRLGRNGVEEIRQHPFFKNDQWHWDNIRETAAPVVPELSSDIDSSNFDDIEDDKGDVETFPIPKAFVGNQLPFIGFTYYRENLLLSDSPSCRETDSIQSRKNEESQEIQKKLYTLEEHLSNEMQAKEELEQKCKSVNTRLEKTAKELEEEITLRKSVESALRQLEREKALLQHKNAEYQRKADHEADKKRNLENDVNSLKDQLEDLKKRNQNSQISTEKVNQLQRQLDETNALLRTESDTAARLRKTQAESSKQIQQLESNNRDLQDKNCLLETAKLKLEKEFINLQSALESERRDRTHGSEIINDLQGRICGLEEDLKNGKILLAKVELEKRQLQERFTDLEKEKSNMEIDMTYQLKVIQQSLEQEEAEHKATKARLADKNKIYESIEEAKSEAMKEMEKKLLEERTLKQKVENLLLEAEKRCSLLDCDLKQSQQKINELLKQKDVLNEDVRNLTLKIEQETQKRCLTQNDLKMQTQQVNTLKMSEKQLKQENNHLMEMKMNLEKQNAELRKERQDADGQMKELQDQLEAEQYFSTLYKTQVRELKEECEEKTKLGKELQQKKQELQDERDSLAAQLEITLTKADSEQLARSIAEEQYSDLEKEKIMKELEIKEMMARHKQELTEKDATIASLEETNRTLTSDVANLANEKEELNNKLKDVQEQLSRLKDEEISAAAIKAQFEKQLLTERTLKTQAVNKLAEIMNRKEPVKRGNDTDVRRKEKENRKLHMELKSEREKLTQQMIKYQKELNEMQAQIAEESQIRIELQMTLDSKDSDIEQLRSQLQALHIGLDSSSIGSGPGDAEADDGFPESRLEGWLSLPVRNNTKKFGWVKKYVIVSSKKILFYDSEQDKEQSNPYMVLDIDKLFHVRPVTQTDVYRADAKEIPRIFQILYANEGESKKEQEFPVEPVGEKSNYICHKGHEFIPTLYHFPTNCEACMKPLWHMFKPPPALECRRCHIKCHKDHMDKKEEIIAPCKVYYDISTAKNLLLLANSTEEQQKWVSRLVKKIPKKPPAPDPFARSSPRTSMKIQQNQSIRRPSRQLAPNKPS
UniProt P38936: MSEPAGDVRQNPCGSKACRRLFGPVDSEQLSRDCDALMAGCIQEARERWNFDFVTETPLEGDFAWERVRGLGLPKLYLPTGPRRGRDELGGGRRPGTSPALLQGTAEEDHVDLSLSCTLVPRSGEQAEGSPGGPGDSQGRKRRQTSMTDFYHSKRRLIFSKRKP
UniProt P61586: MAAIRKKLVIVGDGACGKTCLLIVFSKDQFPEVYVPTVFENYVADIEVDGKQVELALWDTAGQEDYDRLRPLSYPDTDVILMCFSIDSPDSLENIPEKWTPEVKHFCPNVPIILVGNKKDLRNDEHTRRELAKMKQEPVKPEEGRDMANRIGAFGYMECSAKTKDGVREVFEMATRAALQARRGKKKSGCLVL

What was measured:
[1] = molecular target: myc-tagged Rho-kinase (Homo sapiens (Human)) (UniProt O75116); assay: figure legend (FIG. 17)
[2] = molecular target: myc-tagged Rho-kinase (Homo sapiens (Human)) (UniProt O75116); assay: co-immunoprecipitation with anti-p21 antibody from 293T cells cotransfected with GFP-ΔNLS-p21 and myc-Rho-kinase, anti-myc blot
[3] = molecular target: T1, recombinant Rho GDI (from pGEX-GST-Rho GDI, GST moiety removed) (Homo sapiens (Human)) (UniProt P52565); assay: preformed RhoA-Rho GDI complex (prepared by incubation and gel filtration, p-1257)
T1 sequence: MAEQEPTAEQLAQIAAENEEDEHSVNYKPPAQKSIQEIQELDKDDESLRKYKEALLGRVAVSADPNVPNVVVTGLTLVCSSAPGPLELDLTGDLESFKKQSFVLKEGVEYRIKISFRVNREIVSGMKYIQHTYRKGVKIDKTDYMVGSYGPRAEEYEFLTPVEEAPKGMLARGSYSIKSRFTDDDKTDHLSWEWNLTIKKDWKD

| binding [1] | binding [2] | binding [3] | Substance |
| --- | --- | --- | --- |
| binds | binds | – | GFP-ΔNLS-p21 (aa 1-140) (from UniProt P38936 1-140) |
| – | – | binds | prenylated (lipid-modified) RhoA purified from yeast membranes (from UniProt P61586 1-190) (enzyme) |
